Values of other authors as cited in patent US7196180B2, “Functionalized derivatives of hyaluronic acid, formation of hydrogels in situ using same, and methods for making and using same” (Orthogene LLC, priority 1998, dated 2007).
Some entries share one result that the patent states for a list of compounds.

Structure (SMILES): NCCCCCCN [1,6 diaminohexane]
- pKa: > 9
